These are yes or no findings as the source states them, for the method shown. Some entries that bind do so weakly or less than the wild type.
Molecular target: T1, mouse Clec9a (mClec9a) on transfected HEK-293T cells (mouse) (UniProt Q8BRU4)
T1 sequence: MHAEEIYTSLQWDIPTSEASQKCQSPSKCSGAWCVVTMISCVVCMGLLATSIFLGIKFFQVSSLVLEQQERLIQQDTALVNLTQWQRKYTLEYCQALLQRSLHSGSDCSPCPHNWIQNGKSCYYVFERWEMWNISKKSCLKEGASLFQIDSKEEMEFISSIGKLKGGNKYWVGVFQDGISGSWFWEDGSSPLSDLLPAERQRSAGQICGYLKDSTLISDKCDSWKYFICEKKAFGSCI
Experiment: flow cytometry on cells; biotinylated peptides (100 µM) incubated with transiently transfected HEK-293T cells (3 × 10^5, Fc receptors blocked with rat serum) for 30 min on ice, washed three times with FCS buffer containing 2 mM EDTA, stained with SA-PE; only the binder purified

binding: binds
Binder: WPRFHSSVRHTHGGGK (biotin on the C-terminal lysine (K^biotin)) [CBP-12^biotin (12-mer Clec9a binding peptide, …-GGG-K^biotin)]
